Results taken from patent US20220235139A1 (ROCHE DIAGNOSTICS OPERATIONS, published 2022).
No constants are given. Whether binding was seen depends on the method and setting.

Columns and labels:
[1] = molecular target: T1, TtSlyDsh3; experiment: SPR (Biacore), antibody captured, analyte in solution
T1 sequence: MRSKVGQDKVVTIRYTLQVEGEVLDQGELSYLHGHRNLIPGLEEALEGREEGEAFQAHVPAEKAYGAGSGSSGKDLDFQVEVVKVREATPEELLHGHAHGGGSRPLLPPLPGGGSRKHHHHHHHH

[2] = molecular target: T1, TtSlyDsh3; experiment: SPR (Biacore), captured antibody, single injection of 300 nM analyte

B1: antibody 1H11 (antibody, V domains shown)
VH: QSVEESGGRLVTPGTPLTLTCTASGFSLSRYWMTWVRQAPGKGLEYIGWIDRSGNTYFADWAKGRFTGSKTSTTRDLKITSPTTEDTATYFCGRGGQNNGYDLWGPGTLVTVSS
VL: AAVLTQTPSPVSAAVGGTVTISCQSSESVYSNNFLSWYQLKPGQRPRLLIYEASKVASGVPSRFSGSGSGTQFTLTISGVQCDDAATYYCAGGYDVSDDAFGGGTEVLVK
notes: Rabbit full length IgG made recombinantly in FreeStyle 293-F cells; For SPR it was captured from HEK culture supernatant on goat anti-rabbit F(ab)2; no sentence ties 1H11 to them directly; also called rabbit monoclonal anti-CSF-1R antibody
[1]
  binding: no binding (tested: 300 nM)
[2]
  binding: no binding (tested: 300 nM)
